## Primary screen of a compound library

The chains behind the UniProt entries cited, without tags or fusion partners.
UniProt P9WPC5, whole entry: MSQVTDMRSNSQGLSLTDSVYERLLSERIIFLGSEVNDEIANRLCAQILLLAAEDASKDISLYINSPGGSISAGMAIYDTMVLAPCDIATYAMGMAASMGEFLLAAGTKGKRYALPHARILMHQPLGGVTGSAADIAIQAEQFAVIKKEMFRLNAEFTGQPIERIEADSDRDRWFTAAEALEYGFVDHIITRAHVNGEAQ
UniProt P9WPC3, whole entry partner: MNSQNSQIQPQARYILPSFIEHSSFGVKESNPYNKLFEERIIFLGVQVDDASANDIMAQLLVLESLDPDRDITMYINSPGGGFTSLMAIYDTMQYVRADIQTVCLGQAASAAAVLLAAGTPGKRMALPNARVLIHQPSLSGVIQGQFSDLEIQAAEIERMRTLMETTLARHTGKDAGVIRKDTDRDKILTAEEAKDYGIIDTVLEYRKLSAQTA
UniProt I6X8D2, whole entry: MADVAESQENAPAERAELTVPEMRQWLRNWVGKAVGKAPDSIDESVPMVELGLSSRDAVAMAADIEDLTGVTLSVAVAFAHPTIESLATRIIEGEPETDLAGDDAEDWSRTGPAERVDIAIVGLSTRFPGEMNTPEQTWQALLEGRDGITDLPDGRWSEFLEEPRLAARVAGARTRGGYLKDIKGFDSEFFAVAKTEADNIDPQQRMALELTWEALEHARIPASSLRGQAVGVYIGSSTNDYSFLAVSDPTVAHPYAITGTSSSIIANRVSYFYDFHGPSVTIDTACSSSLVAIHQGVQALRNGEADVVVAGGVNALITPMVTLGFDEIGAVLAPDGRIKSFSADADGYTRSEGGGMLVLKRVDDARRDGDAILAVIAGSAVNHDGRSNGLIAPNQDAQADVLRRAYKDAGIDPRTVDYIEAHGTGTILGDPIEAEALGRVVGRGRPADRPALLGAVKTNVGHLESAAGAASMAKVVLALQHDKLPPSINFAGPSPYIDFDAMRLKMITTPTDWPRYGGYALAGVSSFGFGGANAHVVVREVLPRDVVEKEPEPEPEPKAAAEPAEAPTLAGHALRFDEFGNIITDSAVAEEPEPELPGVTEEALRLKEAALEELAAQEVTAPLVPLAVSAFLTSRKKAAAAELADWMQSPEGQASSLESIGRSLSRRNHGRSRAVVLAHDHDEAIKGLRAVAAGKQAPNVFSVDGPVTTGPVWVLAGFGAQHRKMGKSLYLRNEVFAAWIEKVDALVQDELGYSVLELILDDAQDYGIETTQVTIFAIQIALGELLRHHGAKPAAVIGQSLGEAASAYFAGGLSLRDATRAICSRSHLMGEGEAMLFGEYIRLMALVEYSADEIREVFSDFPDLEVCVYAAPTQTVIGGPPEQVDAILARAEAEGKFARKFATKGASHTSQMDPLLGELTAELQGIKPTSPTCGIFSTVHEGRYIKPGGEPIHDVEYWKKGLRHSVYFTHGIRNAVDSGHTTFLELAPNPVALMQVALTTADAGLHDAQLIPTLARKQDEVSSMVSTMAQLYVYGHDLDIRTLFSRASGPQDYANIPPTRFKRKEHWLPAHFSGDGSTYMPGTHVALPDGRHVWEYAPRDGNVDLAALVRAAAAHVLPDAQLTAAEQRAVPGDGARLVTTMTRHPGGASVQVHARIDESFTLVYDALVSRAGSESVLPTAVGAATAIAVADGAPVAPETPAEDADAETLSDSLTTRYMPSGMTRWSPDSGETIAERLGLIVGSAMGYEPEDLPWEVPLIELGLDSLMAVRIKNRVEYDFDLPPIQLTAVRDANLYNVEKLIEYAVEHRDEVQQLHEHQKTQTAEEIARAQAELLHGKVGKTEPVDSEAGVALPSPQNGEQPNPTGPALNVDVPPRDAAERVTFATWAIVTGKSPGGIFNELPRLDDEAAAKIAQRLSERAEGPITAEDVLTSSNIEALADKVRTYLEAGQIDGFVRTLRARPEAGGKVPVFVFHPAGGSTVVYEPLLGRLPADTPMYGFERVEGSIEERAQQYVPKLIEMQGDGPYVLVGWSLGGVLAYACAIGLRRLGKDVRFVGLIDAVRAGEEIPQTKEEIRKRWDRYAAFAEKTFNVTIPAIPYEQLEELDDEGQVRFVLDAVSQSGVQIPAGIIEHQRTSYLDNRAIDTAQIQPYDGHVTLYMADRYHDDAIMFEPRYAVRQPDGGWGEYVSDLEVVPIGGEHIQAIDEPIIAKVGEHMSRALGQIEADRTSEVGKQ
UniProt P9WFT3, whole entry: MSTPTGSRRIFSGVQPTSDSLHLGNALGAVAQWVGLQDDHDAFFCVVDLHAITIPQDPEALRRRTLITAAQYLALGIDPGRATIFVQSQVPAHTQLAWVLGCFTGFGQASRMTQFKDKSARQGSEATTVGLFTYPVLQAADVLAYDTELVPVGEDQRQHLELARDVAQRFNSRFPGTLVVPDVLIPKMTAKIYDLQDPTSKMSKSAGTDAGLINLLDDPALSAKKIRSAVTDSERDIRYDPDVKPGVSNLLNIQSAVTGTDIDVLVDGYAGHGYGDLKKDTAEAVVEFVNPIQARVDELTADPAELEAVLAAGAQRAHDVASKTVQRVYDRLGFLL

Data taken from ChEMBL document CHEMBL3988442, “University of Dundee, Small-Polar-MMV Screening Library” (2021).

ClpP1P2: 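Protease assay of ClpP1P2, read by the AMC dye that it sets free. Target: ClpP1P2, Mycobacterium tuberculosis (UniProt P9WPC5 and UniProt P9WPC3). Concentration: 50 µM. Direction is inferred from only a few compounds that gave an IC50; most scored high, so higher reads as stronger inhibition. Most other retested compounds had strongly negative values. Size under these conditions: about 69,000 compounds, about 10 of them at 50% or above in at least one test.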
Pks13 thioesterase: 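Polyketide synthase Pks13, Mycobacterium tuberculosis (UniProt I6X8D2). Enzyme assay of the thioesterase domain of polyketide synthase 13; the read-out is not stated. Compounds at 30 µM. Higher reads as stronger inhibition (inferred from which compounds were picked for retests). About 67,000 compounds were tested under these conditions; 0.46% (about 300) showed 50% or more at least once.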
MtTrpRS: 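Tryptophan-tRNA ligase, Mycobacterium tuberculosis (UniProt P9WFT3). Enzyme assay of tryptophanyl-tRNA synthetase; the read-out is not stated. Concentration: 10 µM. Direction is not recorded; retested compounds ran higher, which suggests that high means inhibition. About 65,000 compounds were tested under these conditions; 0.098% (about 64) showed 50% or more at least once.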

Values are the deposited “Percent Effect”, in %. How 0% and 100% were set is not recorded. Most values in the screen are low, and negative values occur. This is an unselected part of the compounds tested. A dash means the value is not listed here; it may have been measured.

| # | compound | ClpP1P2 | Pks13 thioesterase | MtTrpRS |
|---|---|---|---|---|
| 1 | `Cc1oncc1C(=O)N1CCCc2c(C#N)nn(C)c2C1` | -6.603 | -27.51 | -0.8112 |
| 2 | `COCCc1noc(CN2CCOC(Cn3nc(C)cc3C)C2)n1` (configuration not stated) | 1.581 | -8.23 | -1.394 |
| 3 | `C[C@@H]1CN(Cc2ccncc2)C[C@]1(C)O` | -5.241 | -1.673 | -1.768 |
| 4 | `CNC(C(=O)N1CCC(c2nccn2C(C)C)CC1)c1ccccc1` (configuration not stated) | -0.8378 | 0.8893 | 0.3623 |
| 5 | `Cc1cccc(OCCC(=O)NCC(C)(C)C(N)=O)c1` | 15.25 | -4.254 | -1.572 |
| 6 | `Cc1cnn(C2CCCN(C(=O)CCc3cscn3)C2)c1` (configuration not stated) | -10.07 | 5.676 | -7.319 |
| 7 | `Cn1c(C2CC2)nc2c1CCN(CC(=O)NC1CCCCNC1=O)C2` (configuration not stated) | -0.9779 | 22.07 | -4.175 |
| 8 | `CCc1c(C)sc2ncnc(N3C[C@H](O)[C@@H](N4CCCC4)C3)c12` | 1.777 | -56.68 | -2.167 |
| 9 | `CSCCCN1C[C@H](NC(=O)c2ccc(CO)cc2)[C@@H](C2CC2)C1` | -6.609 | 4.822 | -0.4881 |
| 10 | `CC(NC(=O)NCCCn1cncn1)c1ccccc1F` (configuration not stated) | -20.78 | -18.39 | -2.985 |
| 11 | `O=C1CC[C@@H](C(=O)N2CCC(Cn3cc(C4CCCCC4)nn3)CC2)N1` | -0.4393 | 3.753 | 0.5747 |
| 12 | `O=C(c1cccs1)N1CC[C@@H]2[C@H]1CCC(=O)N2c1ccccc1` | 6.264 | -8.629 | -5.686 |
| 13 | `N#Cc1ccc(C(=O)NS(=O)(=O)c2ccc(C#N)c(Cl)c2)cc1` | 3.088 | -8.86 | -5.818 |
| 14 | `Cc1cccc(OCCN2CCN(Cc3noc(C)n3)CC2)c1` | 21.45 | -18.91 | -2.652 |
| 15 | `O[C@@H]1Cc2ccccc2[C@@H]1Nc1ncccc1F` | -16.52 | -3.972 | 1.712 |
| 16 | `Cn1ccnc1CN1CCN2C[C@H](OCc3cccnc3)C[C@H]2C1` | -5.886 | -23.16 | 4.068 |
| 17 | `O=C(NCc1ccccc1OCC1CC1)C1CCOC1` (configuration not stated) | -16.44 | -1.39 | -3.336 |
| 18 | `O=C(NCCNc1ncccn1)c1scnc1Cl` | 4.482 | -9.449 | 0.000006 |
| 19 | `CNC(=O)CN1CCN(C(=O)c2ccn(C)c(=O)c2)CC1` | 11.32 | -28.03 | 14.82 |
| 20 | `CC(C)N(C)Cc1ncn2c1CN(CC(=O)N(C)C)CCC2` | 9.602 | 10.61 | 1.281 |
| 21 | `Cn1cnc2c(N3CCOCC3)nc(C3CCNCC3)cc21` | -3.423 | 7.231 | 5.858 |
| 22 | `CCCc1nnsc1C(=O)NCC(O)c1cccs1` (configuration not stated) | -5.681 | -0.08577 | -1.083 |
| 23 | `Cc1noc(C)c1CN1CCO[C@H]2[C@H](Oc3ccccn3)CC[C@@H]21` | 8.201 | -17.16 | -0.8137 |
| 24 | `COc1nccnc1N1CCC2(CC1)[C@H](O)C[C@@H]2OCCN(C)C` | 5.261 | -9.972 | 1.058 |
| 25 | `Cn1cc(C(=O)O)c(-c2ccc(F)cc2F)n1` | -5.103 | 2.802 | -4.686 |
| 26 | `N#CCCCn1cnc2c(F)cc(Br)cc2c1=O` | 4.146 | -6.77 | 2.71 |
| 27 | `CCc1nccn1CCNC1CCN(c2nc3ccc(Cl)cc3s2)CC1` | -4.863 | -31.1 | 2.808 |
| 28 | `COCCNC(=O)C1CN(Cc2csc(C)n2)Cc2ccnn2C1` (configuration not stated) | 13.94 | -14.64 | -6.667 |
| 29 | `CCc1cc(O)nc(C2CCCN2C(=O)c2cc(CC)on2)n1` (configuration not stated) | 11.35 | 13.12 | - |
| 30 | `CCc1cnc(CN(C)C2CCN(CCn3cc(C#N)cn3)C2)o1` (configuration not stated) | 5.93 | -2.498 | 24.37 |
| 31 | `Cc1cnc(N2C[C@H]3CCN(CC4CC4)C[C@@H]3C2)nc1` | -8.676 | 4.723 | 12.08 |
| 32 | `Cc1cnn(CC2CN(Cc3nccn3C)CCO2)c1` (configuration not stated) | -5.902 | -4.441 | -1.846 |
| 33 | `CN(C)C(=O)N1CCN(Cc2ccc3occc3c2)[C@H]2CS(=O)(=O)C[C@H]21` | -1.352 | 15.29 | 1.701 |
| 34 | `CNc1cc(C2CCCN2Cc2ccccc2C(=O)O)ccn1` (configuration not stated) | -0.9567 | -31.25 | -2.258 |
| 35 | `CCCn1cc(NC(=O)c2ccc(NC(=O)NC3CC3)cc2)ccc1=O` | 11.71 | -9.484 | 3.799 |
| 36 | `CN(CCCOc1ccccc1)S(=O)(=O)c1cnn(C)c1` | 11.95 | 3.124 | 3.871 |
| 37 | `Cc1cc(NC(=O)NCc2nccn2C)ccc1OC(C)C` | -5.883 | 19.86 | -28.31 |
| 38 | `O=c1cc(-c2ccncc2)nc(-c2ccc(CN3CC[C@H](O)C3)cc2)[nH]1` | 3.468 | -29.57 | 7.518 |
| 39 | `CS(=O)(=O)N1CCOCC2(CN(Cc3nccs3)CCO2)C1` (configuration not stated) | 0.8448 | -24.42 | -5.179 |
| 40 | `COCCC(=O)N1CCC2(COCc3cnc(NCC4CC4)nc32)C1` (configuration not stated) | -15.46 | -15.27 | -1.201 |
| 41 | `CCc1nc(C2CCCN2c2ncc(Br)cn2)no1` (configuration not stated) | 0.7993 | -16.46 | -2.562 |
| 42 | `O=C(O)c1ccc(COc2cccc(Cl)c2)s1` | -3.015 | -4.396 | -32.77 |
| 43 | `CCOc1ccc(-c2ccnc(COc3ccccc3)n2)cc1C(=O)O` | -10.72 | -7.947 | -1.944 |
| 44 | `O=C(N[C@@H]1CCC[C@@H](N2CCOCC2)[C@@H]1O)c1ncccn1` | -6.431 | -1.415 | 0.2898 |
| 45 | `CCc1cnc(C)nc1NC1CC(=O)N(CC)C1` (configuration not stated) | -14.01 | -11.77 | -5.961 |
| 46 | `CN(CCOCC1CC1)C(=O)Cn1cccc(C(F)(F)F)c1=O` | -14.1 | -17.95 | -7.495 |
| 47 | `CC(C)(C)c1nc(CN2CCC3(CCCO3)CCC2=O)no1` (configuration not stated) | -1.018 | -28.88 | -4.608 |
| 48 | `COc1cccc2c1ccn2CC(=O)N1CCCC(C(=O)O)C1` (configuration not stated) | -12.13 | 1.423 | -2.795 |
| 49 | `CSC1=Nc2c(cnn2-c2cccc(Cl)c2)C2=NCCCN12` | -3.496 | -21.45 | 1.296 |
| 50 | `COCCCNc1cc(C)nn2cnnc12` | -15.43 | -1.475 | 2.202 |
| 51 | `CCNC(=O)[C@@H]1C[C@@H](NC(=O)c2ccc(C)s2)CN1Cc1ccccn1` | -0.118 | -2.94 | 0.2937 |
| 52 | `COc1cccc(CNc2cccnc2-n2cccn2)c1OC` | -7.615 | 3.744 | 5.047 |
| 53 | `Cc1oncc1C(=O)NCc1ccnc(OCC(F)(F)F)c1` | -10.55 | -25.23 | 7.345 |
| 54 | `Cc1nc(CN2Cc3nccn3CC(CN3CCOCC3)C2)cs1` (configuration not stated) | -5.423 | -21.69 | 1.144 |
| 55 | `CC(C)c1nc(CN2CCN(Cc3ccccn3)CC2)cs1` | -5.107 | -0.2998 | -2.034 |
| 56 | `NCCc1c(-c2ccccc2)[nH][nH]c1=O` | -12.68 | -6.598 | 3.544 |
| 57 | `Cn1cc(I)c(C(=O)NCCCn2cc(Br)cn2)n1` | -15.07 | 54.99 | 3.441 |
| 58 | `CC(=O)Nc1nc(-c2ccc(C)c(C)c2)c[nH]1` | -15.05 | 7.547 | -6.546 |
| 59 | `CCC[C@@H]1CN(Cc2cnc3c(S(C)(=O)=O)cnn3c2)C[C@H]1N(C)C` | 7.577 | 4.469 | 0.5757 |
| 60 | `Cc1nc(C)n(C2CCCN(C(=O)c3ccc(CN(C)C)cc3)C2)n1` (configuration not stated) | -18.88 | -8.772 | -3.29 |
| 61 | `COc1ccc(C(=O)NCc2cc(N3CCOCC3)ncn2)o1` | -8.851 | -8.059 | 4.452 |
| 62 | `COc1ccc(CN2CCCn3cncc3C2)cc1Cn1cncn1` | 5.701 | -64.77 | 5.045 |
| 63 | `CC(C)C1CN(C(=O)c2cc(F)cc3[nH]cnc23)CCS1` (configuration not stated) | -3.785 | 4.129 | 4.823 |
| 64 | `COc1cccc([C@@]2(O)CC[C@@H]3CN(C(=O)c4c[nH]nc4C)C[C@@H]32)c1` | -9.952 | -10.62 | -3.46 |
| 65 | `CC(CNC(=O)CCCn1cncn1)N1CCc2ccccc2C1` (configuration not stated) | -3.226 | -25.79 | 1.162 |
| 66 | `COC(=O)CCCN(C)C(=O)c1cc(F)cc2[nH]cnc12` | -11.53 | -0.7257 | -1.183 |
| 67 | `CCc1ccc(CN2CC[C@@H]3CN(S(C)(=O)=O)CCO[C@@H]3C2)o1` | 9.039 | -6.542 | -0.07047 |
| 68 | `CCn1ncc(S(=O)(=O)N[C@@H]2CCC[C@@H](n3ccnc3)[C@@H]2O)c1C` | -4.931 | 7.643 | -2.474 |
| 69 | `CN(Cc1ccc(C(=O)NCC2COCCO2)c(=O)[nH]1)CC(C)(C)C` (configuration not stated) | -9.537 | 14.5 | -0.6606 |
| 70 | `Cc1cccc(C(C(=O)N(C)CCc2cn[nH]c2)N(C)C)c1` (configuration not stated) | -4.935 | -7.696 | 2.058 |
| 71 | `Cc1nc2ccccc2n1Cc1cc(C(=O)N(C)C2CCOCC2)no1` | -6.668 | 8.283 | -0.5825 |
| 72 | `O=C(C1CCOC1)N1C[C@H]2CN(Cc3nccs3)C[C@H]2C1` (some centres not stated) | 0.7483 | -15.6 | -7.411 |
| 73 | `CCc1oc(C(=O)N(C)Cc2ccncc2)cc1CN(CC)CC` | -5.191 | -2.914 | 6.408 |

Some entries from above, unchanged:

* CNC(=O)CN1CCN(C(=O)c2ccn(C)c(=O)c2)CC1 : ClpP1P2: 11.32%; Pks13 thioesterase: -28.03%; MtTrpRS: 14.82%
* O=C1CC[C@@H](C(=O)N2CCC(Cn3cc(C4CCCCC4)nn3)CC2)N1 : ClpP1P2: -0.4393%; Pks13 thioesterase: 3.753%; MtTrpRS: 0.5747%
* O=C(NCc1ccccc1OCC1CC1)C1CCOC1 (configuration not stated) : ClpP1P2: -16.44%; Pks13 thioesterase: -1.39%; MtTrpRS: -3.336%
* CCc1nc(C2CCCN2c2ncc(Br)cn2)no1 (configuration not stated) : ClpP1P2: 0.7993%; Pks13 thioesterase: -16.46%; MtTrpRS: -2.562%
* CCc1nccn1CCNC1CCN(c2nc3ccc(Cl)cc3s2)CC1 : ClpP1P2: -4.863%; Pks13 thioesterase: -31.1%; MtTrpRS: 2.808%